Values from PubChem BioAssay AID743121 (NCATS, 2013).
Shown is one part, drawn at random, of about 26,000 reagents tested. Of all reagents, 167 (0.63%) are marked active. 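Calls are per gene from RSA p-values that are not deposited; an individual active-marked siRNA can sensitise only weakly.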 Reagent sequences are not shown.

Assay: 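Knock-downs that sensitise breast cancer cells to camptothecin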 (primary screen)
Cell system: MDA-MB-231 cells, a human breast cancer line
Reagents: single siRNA against human genes, 20 nM siRNA (0.8 pmol per well)
Time to read-out: 120 h (drug added 48 h after transfection, read 72 h later)
Treatment: camptothecin 20 nM (about EC30) for 72 h; vehicle 0.1% DMSO in parallel plates
Read-out: 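Cell viability by ATP luminescence (CellTiter-Glo) as % of non-targeting siRNA wells, and the log2 ratio of viability without drug over viability with camptothecin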
Reading the numbers: log2 vehicle/camptothecin viability: higher = stronger sensitisation to camptothecin; viability with camptothecin and viability without drug: higher = more viable cells
Rule for the call: 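Each gene scored by redundant siRNA activity (RSA) over its individual siRNA ratios; a gene is called active at p < 0.001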

target | PubChem SID | log2 vehicle/camptothecin viability | viability with camptothecin (% of control) | viability without drug (% of control) | activity call
TPSAB1 (GeneID 7177) | SID164392534 | -0.183 | 96.8 | 85.3 | inactive
TPSAB1 (GeneID 7177) | SID164502925 | -0.153 | 121 | 109 | inactive
TPSAB1 (GeneID 7177) | SID164502930 | -0.128 | 28.3 | 25.9 | inactive
ERAS (GeneID 3266) | SID164369974 | 0.162 | 87.3 | 97.7 | inactive
ERAS (GeneID 3266) | SID164369975 | 0.312 | 39.4 | 48.9 | inactive
ERAS (GeneID 3266) | SID164369976 | -0.406 | 124 | 93.5 | inactive
ERAS (GeneID 3266) | SID164369977 | 0.693 | 12.8 | 20.7 | inactive
TASL (GeneID 80231) | SID164535715 | -0.219 | 97.6 | 83.8 | inactive
TASL (GeneID 80231) | SID164535716 | 0.0776 | 92.7 | 97.9 | inactive
TASL (GeneID 80231) | SID164535720 | -0.367 | 67.4 | 52.3 | inactive
SSTR3 (GeneID 6753) | SID164389945 | 0.255 | 34.3 | 40.9 | inactive
SSTR3 (GeneID 6753) | SID164389946 | -0.738 | 62.8 | 37.6 | inactive
SSTR3 (GeneID 6753) | SID164389948 | -0.387 | 68.7 | 52.6 | inactive
SSTR3 (GeneID 6753) | SID164389950 | -0.265 | 85.1 | 70.8 | inactive
RAP2B (GeneID 5912) | SID164384682 | -0.0743 | 71.3 | 67.8 | inactive
RAP2B (GeneID 5912) | SID164384683 | -0.481 | 70.5 | 50.5 | inactive
RAP2B (GeneID 5912) | SID164384684 | -0.0705 | 105 | 100 | inactive
RAP2B (GeneID 5912) | SID164384685 | -0.256 | 103 | 86.5 | inactive
SCNN1D (GeneID 6339) | SID164387198 | -0.332 | 82.8 | 65.8 | inactive
SCNN1D (GeneID 6339) | SID164387200 | -0.0135 | 70.5 | 69.8 | inactive
SCNN1D (GeneID 6339) | SID164387201 | -0.525 | 105 | 73 | inactive
SCNN1D (GeneID 6339) | SID164387204 | 0.478 | 46.2 | 64.3 | inactive
CTNNAL1 (GeneID 8727) | SID164399480 | -0.134 | 109 | 99.7 | inactive
CTNNAL1 (GeneID 8727) | SID164399481 | -0.12 | 115 | 106 | inactive
CTNNAL1 (GeneID 8727) | SID164399484 | -0.278 | 90.8 | 74.8 | inactive
CTNNAL1 (GeneID 8727) | SID164399486 | -0.445 | 125 | 92 | inactive
CLEC4G (GeneID 339390) | SID164657597 | 0.409 | 50 | 66.3 | inactive
CLEC4G (GeneID 339390) | SID164657598 | -0.129 | 70.1 | 64.2 | inactive
CLEC4G (GeneID 339390) | SID164657599 | -0.411 | 98.4 | 74 | inactive
PDE4A (GeneID 5141) | SID164379869 | -0.0063 | 89.6 | 89.3 | inactive
PDE4A (GeneID 5141) | SID164379870 | -0.162 | 77 | 68.9 | inactive
PDE4A (GeneID 5141) | SID164379872 | 0.64 | 12.2 | 19 | inactive
PDE4A (GeneID 5141) | SID164379873 | 0.132 | 101 | 110 | inactive
SCN1B (GeneID 6324) | SID164387099 | 0.101 | 86.8 | 93.1 | inactive
SCN1B (GeneID 6324) | SID164387105 | 0.59 | 61.5 | 92.6 | inactive
SCN1B (GeneID 6324) | SID164387106 | -0.257 | 66.7 | 55.8 | inactive

Next part; the last 8 above are carried over.
target | PubChem SID | log2 vehicle/camptothecin viability | viability with camptothecin (% of control) | viability without drug (% of control) | activity call
CLEC4G (GeneID 339390) | SID164657599 | -0.411 | 98.4 | 74 | inactive
PDE4A (GeneID 5141) | SID164379869 | -0.0063 | 89.6 | 89.3 | inactive
PDE4A (GeneID 5141) | SID164379870 | -0.162 | 77 | 68.9 | inactive
PDE4A (GeneID 5141) | SID164379872 | 0.64 | 12.2 | 19 | inactive
PDE4A (GeneID 5141) | SID164379873 | 0.132 | 101 | 110 | inactive
SCN1B (GeneID 6324) | SID164387099 | 0.101 | 86.8 | 93.1 | inactive
SCN1B (GeneID 6324) | SID164387105 | 0.59 | 61.5 | 92.6 | inactive
SCN1B (GeneID 6324) | SID164387106 | -0.257 | 66.7 | 55.8 | inactive
FBXO4 (GeneID 26272) | SID164459599 | -0.173 | 58.3 | 51.7 | inactive
FBXO4 (GeneID 26272) | SID164459602 | -0.295 | 92 | 75 | inactive
FBXO4 (GeneID 26272) | SID164459603 | -0.287 | 117 | 96.2 | inactive
FBXO4 (GeneID 26272) | SID164459604 | 0.0935 | 39.3 | 42 | inactive
SYNGAP1 (GeneID 8831) | SID164400130 | -0.0521 | 64 | 61.8 | inactive
SYNGAP1 (GeneID 8831) | SID164400131 | 0.0187 | 79.7 | 80.8 | inactive
SYNGAP1 (GeneID 8831) | SID164400132 | -0.172 | 15.2 | 13.5 | inactive
SYNGAP1 (GeneID 8831) | SID164400134 | -0.359 | 88 | 68.6 | inactive
GMIP (GeneID 51291) | SID164473098 | -0.577 | 50 | 33.5 | inactive
GMIP (GeneID 51291) | SID164473099 | 0.0122 | 97.6 | 98.4 | inactive
GMIP (GeneID 51291) | SID164473101 | -0.241 | 93.6 | 79.2 | inactive
ACAT1 (GeneID 38) | SID164351955 | 0.106 | 96.4 | 104 | inactive
ACAT1 (GeneID 38) | SID164351956 | 0.398 | 71 | 93.6 | inactive
ACAT1 (GeneID 38) | SID164351959 | 0.501 | 26.4 | 37.3 | inactive
ACAT1 (GeneID 38) | SID164351961 | -0.107 | 93.3 | 86.6 | inactive
CDKN2A (GeneID 1029) | SID164357843 | -0.33 | 42.3 | 33.6 | inactive
CDKN2A (GeneID 1029) | SID164357845 | -0.392 | 102 | 77.5 | inactive
CDKN2A (GeneID 1029) | SID164357847 | -0.767 | 95.8 | 56.3 | inactive
CDKN2A (GeneID 1029) | SID164357848 | -0.261 | 58.9 | 49.2 | inactive
GTF2H1 (GeneID 2965) | SID164368097 | -0.137 | 44.5 | 40.5 | inactive
GTF2H1 (GeneID 2965) | SID164368098 | 0.236 | 72.4 | 85.2 | inactive
GTF2H1 (GeneID 2965) | SID164368099 | -0.438 | 95.1 | 70.2 | inactive
GTF2H1 (GeneID 2965) | SID164368100 | 0.153 | 78.8 | 87.7 | inactive
MST1 (GeneID 4485) | SID164376195 | -0.337 | 85.6 | 67.7 | inactive
MST1 (GeneID 4485) | SID164376196 | -0.536 | 19.5 | 13.4 | inactive
MST1 (GeneID 4485) | SID164376199 | -0.173 | 111 | 98.1 | inactive
RNF103 (GeneID 7844) | SID164395629 | 0.167 | 63.5 | 71.2 | inactive
RNF103 (GeneID 7844) | SID164395630 | -0.127 | 57.2 | 52.4 | inactive
RNF103 (GeneID 7844) | SID164395631 | 0.192 | 99.5 | 114 | inactive
RNF103 (GeneID 7844) | SID164395633 | 0.837 | 35.3 | 63.1 | inactive
FBXO33 (GeneID 254170) | SID164605457 | -0.285 | 80.8 | 66.3 | inactive
FBXO33 (GeneID 254170) | SID164605458 | -0.396 | 97.5 | 74.1 | inactive
FBXO33 (GeneID 254170) | SID164605459 | -0.256 | 116 | 96.9 | inactive
FBXO33 (GeneID 254170) | SID164605460 | -0.233 | 106 | 90.4 | inactive
